The campaign covered roughly 140,000 compounds. About 240 (0.17%) were called active. Listed are the inconclusive results; actives and inactives stand elsewhere. Calls follow the shape of the dose curve; as a rule, active = well fitted inhibition curve with a large enough effect; inconclusive = small, poorly fitted or top-dose-only effect; inactive = no such curve, though single readings can be large or run the other way. Some results for these compounds are left out of this collection, so the calls shown say nothing about other tests.
assay: Primary qHTS assay for inhibitors of alpha-synuclein gene (SNCA) expression; conditions: HEK-293 SNCA-luciferase knock-in, luminescence, 24 h; also: nearly all actives have a fitted effect of over 45% in size
Excerpt: Assay Submitter (PI): Daniel R. Scoles Ph.D.
Department of Neurology, University of Utah, Salt Lake City, Utah
Accumulation of alpha-synuclein is a main underlying pathological feature of Parkinson's disease (PD) and alpha-synucleinopathies, for which lowering expression of the alpha-synuclein gene (SNCA) is a potential therapeutic avenue. Using a cell-based luciferase reporter of SNCA expression we performed a quantitative high throughput screen (qHTS) of 155,885 compounds in dose response. The screening assay was generated using genome editing to insert the luciferase gene downstream and in frame of the SNCA gene in HEK-293 cells (1). A viability counterscreen using GF-AFC was used to eliminate cytotoxic and false positive compounds. […]
7; Detector; Fluorescence; Measure fluorescence with ViewLux microplate reader (PerkinElmer) equipped with 405/10 excitation and 540/25 emission filters. […]
10; Detector; Luminescence; Measure luminescence with ViewLux microplate reader (PerkinElmer) equipped with clear filters. […]
10; Signals were analyzed, and dose-response curves were fit using the Hill equation. […]
Potency is read from the fitted curve at half-maximal effect.

Structure (SMILES)	Potency
COc1cccc(C(=O)NCC2(N3CCOCC3)CCCCC2)c1	inconclusive: 10 µM
CN(C)C1(CNC(=O)c2cccc(Cl)c2)CCCCC1	inconclusive: 12.6 µM
